The data set has as its system NAT and CRC tissue samples. The experiment in a line: Relative quantification of MAPs by TMT SPS-MS3 with spiked synthetic peptides, CRC vs matched NAT. Also noted: species or system human. Particulars: for Endogenous sample ratio: CRC vs matched NAT; for SPS-MS3 ratio (127N/126): TMT127N (CRC) / TMT126 (NAT). How it is done: TMT labeling. MAP extracts were resuspended in 200 mM Hepes buffer pH 8.1. 50 μg of TMT reagent (Thermo Fisher Scientific) in anhydrous acetonitrile was added to samples as follows: CRC cell line replicates were labeled with TMT6plex (lot #UG287166) channels TMT6-126-129; Tissue samples were labeled with TMT10plex (lot #UH285228) −126 (NAT) and −127N (tumor). Samples were gently vortexed and reacted at room temperature for 1.5 hours. Samples were then quenched with 50% hydroxylamine for 30 minutes at room temperature, then were diluted with 4% FA/H2O. CRC cell line replicates and individual NAT-tumor pairs were combined. Samples were then desalted on homemade C18 membrane (Empore) columns and stored at −20° C. until injection. To quantify MAPs of interest in primary tissue samples, synthetic peptides at concentrations of 0.75 to 192 fmoles were labeled with TMT 10plex channels −128N, −128C, −129N, −129C, −130N, −130C, −131, while the NAT and CRC tissues were labeled with −126 and 127N, respectively. Note that the channel −127C was left empty to assess contamination between channels.
Relative quantification. To relatively quantify MAPs of interest in primary tissue samples, synthetic peptides at concentrations of 10, 100, or 1000 fmol labeled with TMT 10plex-129N, 130N, and 131N, respectively, were spiked into remaining purified MAPs from NAT and CRC tissue samples labeled with TMT10plex-126 and 127N, respectively. Note that the channel TMT 10plex-127C was left empty to assess contamination. Samples were analyzed with an Orbitrap Fusion Tribrid spectrometer (Thermo Fisher Scientific) in positive ion mode with Nanoflex source at 2.4 kV. For synchronous precursor selection MS3 (SPS-MS3), full MS scans were acquired with a range of 300-1000 m/z, Orbitrap resolution of 120 000, automatic gain control (AGC) of 5.0e5, and a maximum injection time of 50 ms, using an inclusion list for the peptides of interest. A 3s top speed approach for MS2 was used in the ion trap, with an isolation window of 0.4m/z, collision induced dissociation of 35%, a ‘normal’ ion trap scan rate mode, 2.0e4 AGC target, and 50 ms maximum injection time. This was followed by the selection of eight synchronous precursor ions for MS3 acquisition, which was done with a scan range of 110-500 m/z, Orbitrap resolution of 50 000, AGC of 1.0e5, maximum injection time of 300 ms, an isolation window of 2.0m/z, and 65% HCD collision energy. LC-MS instrument was controlled using Xcalibur version 4.4 (Thermo Fisher Scientific, Inc). Error tolerances for precursor mass and fragment ions were set to 10.0 ppm and 0.5 Da, respectively. A non-specific digest mode was used. TMT10plex was set as a fixed PTM, and variable modifications included phosphorylation (STY), Oxidation (M), Deamidation (NQ), and TMT10plex STY. For quantification, PSMs were filtered to exclude those with contamination in the TMT10plex-127C channel, and to select those within the 70th intensity percentile. MS2 precursor profiles and intensity profiles of all relevant channels were manually inspected to select peptides for quantification. Intensity ratios for each peptide were calculated using the average TMT10plex-127N and TMT10plex-126 intensities of good quality PSMs.
Experimental Design and Statistical Rationale. To effectively elucidate the MHC I immunopeptidome of colorectal cancer, 4 CRC cell lines were selected and 6 samples from human subjects consisting of both matched tumor and normal adjacent tissue (NAT) were acquired. […] Since no matched samples were available for cell lines, a pool of 6 mTEC samples was used in the creation of global cancer databases, to obtain a wide berth of approximate normal RNA expression. […] For t-tests, f-tests were performed to determine whether the dataset had significant variation; if yes, then the t-test assuming variation was used, and otherwise the t-test assuming no variation was used. […]

With “RNRQVATAL (listed as Homo sapiens) [aeTSA, SUCNR1 exon, S6; predicted HLA-B*07:02; previously reported in US2022/0002374]”, under “sample S1”, the Endogenous sample ratio turned out to be 0.890 and the “SPS-MS3 ratio (127N/126)” value is 3.507. For the setting “sample S6”, the Endogenous sample ratio amounted to 1.090 and the “SPS-MS3 ratio (127N/126)” value was found to be 5.722.

Regarding “KIGEVIVTK (listed as Homo sapiens) [mTSA, HSPD1 exon, S2; predicted HLA-A*03:02]”, where the note is “sample S2”, the Endogenous sample ratio was 2.506 and the “SPS-MS3 ratio (127N/126)” value is 13.637. For “FVDNQYWRY (listed as Homo sapiens) [TAA, MMP12 exon, S4; predicted HLA-A*01:01]”, where the note is “sample S4”, the Endogenous sample ratio is listed as 0.721 and the “SPS-MS3 ratio (127N/126)” value is on record as 10.954. Regarding “RLMKFLPV [aeTSA, intergenic, S5; predicted HLA-B*13:02]”, under “sample S5”, the Endogenous sample ratio was determined as 0.171. Same read-out and setting: under “SLYISEERK [aeTSA, TRPC6 lncRNA, S5; predicted HLA-A*03:01]” stands 0.046. On to “QMAGLRDTY (listed as Homo sapiens) [TAA, SPC25 exon, S3; predicted HLA-A*01:01]”, for which, under “sample S3”, the Endogenous sample ratio is 1.140 and the “SPS-MS3 ratio (127N/126)” value was 2.884. Regarding “SIIETVNSL (listed as Homo sapiens) [aeTSA, IPP intron, S2; predicted HLA-A*02:01]”, the Endogenous sample ratio (sample S2) stood at 0.288.

“LPHRALSGI (listed as Homo sapiens) [aeTSA, NKD1 intron, S1; predicted HLA-B*07:02]”: the Endogenous sample ratio (sample S1) is recorded as −0.364. Regarding “GQIELSIYR [aeTSA, PATJ intron, S5; predicted HLA-A*03:01]”, for the setting “sample S5”, the Endogenous sample ratio is listed as 0.328.

Take “TYKYVDINTF (listed as Homo sapiens) [TAA, MMP12 exon, S1; predicted HLA-A*24:02]”: where the note is “sample S1”, the Endogenous sample ratio stood at 1.969 and the “SPS-MS3 ratio (127N/126)” value came out at 8.226. Consider “KSINEFWNK (listed as Homo sapiens) [TAA, SPC25 exon, S2; predicted HLA-A*03:02]”, for which, under “sample S2”, the Endogenous sample ratio came out at 2.212 and the “SPS-MS3 ratio (127N/126)” value was 5.238. “AQKLQVRI [aeTSA, intergenic, S5; predicted HLA-B*52:01]”: where the note is “sample S5”, the Endogenous sample ratio turned out to be 0.793. Regarding “VQTAVLNV (listed as Homo sapiens) [aeTSA, intergenic, S5; predicted HLA-B*52:01]”, where the note is “sample S5”, the Endogenous sample ratio was 1.089.

“LRHKLVLNR (listed as Homo sapiens) [aeTSA, GRIN2B 3' UTR, S2; predicted HLA-B*27:05]”: the Endogenous sample ratio (sample S2) was found to be 0.307. “HGALSIRSI [aeTSA, intron, S5; predicted HLA-B*52:01]”: where the note is “sample S5”, the Endogenous sample ratio amounted to 0.777. On to “SANVSKVSF (listed as Homo sapiens) [TAA, ASPM exon, S5; predicted HLA-C*12:02]”, for which, for the setting “sample S5”, the Endogenous sample ratio turned out to be 1.114 and the “SPS-MS3 ratio (127N/126)” value is listed as 2.321.

Regarding “VLYRSVLLLK (listed as Homo sapiens) [ncTAA, FANCA intron, S6; predicted HLA-A*03:01]”, where the note is “sample S6”, the Endogenous sample ratio is 0.997. As to “AQYDQASTKY (listed as Homo sapiens) [TAA, CENPF exon, S4; predicted HLA-B*15:01]”, the Endogenous sample ratio (sample S4) came to 1.452.

Turning to “GTNPTAAVK (listed as Homo sapiens) [aeTSA, HKDC1 exon, S2; predicted HLA-A*03:02]”, under “sample S2”, the Endogenous sample ratio turned out to be 2.095 and the “SPS-MS3 ratio (127N/126)” value was 12.174. Regarding “TVNTQQYNTK (listed as Homo sapiens) [aeTSA, CYP39A1 intron, S2; predicted HLA-A*03:02]”, the Endogenous sample ratio (sample S2) was −0.021. Regarding “TTLENLPQK (listed as Homo sapiens) [aeTSA, COL11A1 exon frameshift, S4; predicted HLA-A*11:01]”, under “sample S4”, the Endogenous sample ratio worked out at 0.134 and the “SPS-MS3 ratio (127N/126)” value amounted to 3.783. Consider “RYLEKFYGL (listed as Homo sapiens) [TAA, MMP12 exon, S1, S6; predicted HLA-A*24:02, HLA-A*23:01]”, for which the “abundance in tumor compared to NAT” value (S1 tumor) was “overexpressed”. Under “sample S1”, the Endogenous sample ratio turned out to be 2.840 and the “SPS-MS3 ratio (127N/126)” value is 7.661. In addition, where the note is “sample S6”, the Endogenous sample ratio was found to be 2.970 and the “SPS-MS3 ratio (127N/126)” value is given as 16.090.

In the case of “TRSTIILHL (listed as Homo sapiens) [mTSA, PLK1 exon, S3; predicted HLA-C*06:02]”, for the setting “sample S3”, the Endogenous sample ratio is recorded as 1.381 and the “SPS-MS3 ratio (127N/126)” value is 48.807. For the sequence “SVSHLHIFF (listed as Homo sapiens) [aeTSA, intergenic, S3; predicted HLA-A*32:01]”, under “sample S3”, the Endogenous sample ratio was −1.100.

As to “VEAPHLPSF (listed as Homo sapiens) [aeTSA, COL11A1 5' UTR, S6; predicted HLA-B*18:01; previously reported in WO2020/131586]”, for the setting “sample S6”, the Endogenous sample ratio came out at 1.059 and the “SPS-MS3 ratio (127N/126)” value is on record as 41.318.

Turning to “RIQLPVVSK (listed as Homo sapiens) [TAA, MKI67 exon, S2, S4; predicted HLA-A*03:02, HLA-A*11:01]”, where the note is “sample S4”, the Endogenous sample ratio was determined as 1.083 and the “SPS-MS3 ratio (127N/126)” value is on record as 2.073.

The record behind these values is patent US20250136937A1, “NOVEL TUMOR-SPECIFIC ANTIGENS FOR COLORECTAL CANCER AND USES THEREOF” (UNIVERSITÉ DE MONTRÉAL, priority 2021, published 2025).
